Results: paper PMC10653872
Like-named read-outs stand apart in the source and are kept apart here. Results are given in words; binding and its absence hold for the method and conditions named. In cells and extracts the contact can be indirect. Some results given as binding are weak or reduced against the parent protein; the word gives no strength.

Amino acid sequences for entries named in this document (tags omitted).
UniProt P06428: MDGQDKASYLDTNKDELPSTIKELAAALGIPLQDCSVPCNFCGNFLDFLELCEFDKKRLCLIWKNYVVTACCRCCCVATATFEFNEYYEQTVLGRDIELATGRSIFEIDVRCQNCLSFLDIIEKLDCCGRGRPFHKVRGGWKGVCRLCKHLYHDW
UniProt Q92585: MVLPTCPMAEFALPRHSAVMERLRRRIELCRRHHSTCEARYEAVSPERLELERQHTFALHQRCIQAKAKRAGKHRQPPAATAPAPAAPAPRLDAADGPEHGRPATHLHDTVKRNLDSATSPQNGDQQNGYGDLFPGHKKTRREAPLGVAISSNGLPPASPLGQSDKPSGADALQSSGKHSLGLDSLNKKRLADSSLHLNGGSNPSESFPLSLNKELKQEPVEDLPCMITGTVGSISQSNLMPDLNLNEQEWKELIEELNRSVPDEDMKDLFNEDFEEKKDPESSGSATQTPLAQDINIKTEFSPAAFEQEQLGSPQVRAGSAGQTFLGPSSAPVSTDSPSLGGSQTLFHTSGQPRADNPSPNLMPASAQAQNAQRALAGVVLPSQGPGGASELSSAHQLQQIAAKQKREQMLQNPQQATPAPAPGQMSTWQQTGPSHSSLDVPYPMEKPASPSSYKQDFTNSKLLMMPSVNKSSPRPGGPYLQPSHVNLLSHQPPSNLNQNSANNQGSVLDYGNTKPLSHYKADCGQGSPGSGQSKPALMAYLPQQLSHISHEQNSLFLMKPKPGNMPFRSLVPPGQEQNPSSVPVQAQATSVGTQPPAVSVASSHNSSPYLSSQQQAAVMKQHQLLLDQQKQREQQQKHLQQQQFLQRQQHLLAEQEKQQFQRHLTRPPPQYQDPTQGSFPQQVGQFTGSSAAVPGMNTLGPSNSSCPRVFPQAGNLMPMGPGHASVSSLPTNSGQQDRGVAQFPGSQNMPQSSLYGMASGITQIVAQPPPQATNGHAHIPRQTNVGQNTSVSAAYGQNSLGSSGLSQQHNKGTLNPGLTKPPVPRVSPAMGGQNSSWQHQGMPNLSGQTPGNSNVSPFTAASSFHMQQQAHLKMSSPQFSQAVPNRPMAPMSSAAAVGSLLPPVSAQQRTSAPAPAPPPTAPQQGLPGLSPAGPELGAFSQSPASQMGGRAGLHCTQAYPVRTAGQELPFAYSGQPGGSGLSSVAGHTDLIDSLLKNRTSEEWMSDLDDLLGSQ

B1: B-cell CLL/lymphoma 9-like (BCL9L) (protein, UniProt Q86UU0 1-1499)
chain: MRILANKTRLPHPRRREAPGSPPLSPRGHCPPAPAKPMHPENKLTNHGKTGNGGAQSQHQNVNQGPTCNVGSKGVGAGNHGAKANQISPSNSSLKNPQAGVPPFSSLKGKVKRDRSVSVDSGEQREAGTPSLDSEAKEVAPRSKRRCVLERKQPYSGDEWCSGPDSEEDDKPIGATHNCNVADPAMAAPQLGPGQTTQLPLSESSVPGAPHGPPPGLRPDAPGGGGGGGGVPGKPPSQFVYVFTTHLANTAAEAVLQGRADSILAYHQQNVPRAKLDQAPKVPPTPEPLPLSTPSAGTPQSQPPPLPPPPPPAPGSAPPALPPEGPPEDSSQDLAPNSVGAASTGGGTGGTHPNTPTATTANNPLPPGGDPSSAPGPALLGEAAAPGNGQRSLVGSEGLSKEQLEHRERSLQTLRDIERLLLRSGETEPFLKGPPGGAGEGGPPAQAPPPPQQPPTAPPSGLKKYEEPLQSMISQTQSLGGPPLEHEVPGHPPGGDMGQQMNMMIQRLGQDSLTPEQVAWRKLQEEYYEEKRRKEEQIGLHGSRPLQDMMGMGGMMVRGPPPPYHSKPGDQWPPGMGAQLRGPMDVQDPMQLRGGPPFPGPRFPGNQIQRVPGFGGMQSMPMEVPMNAMQRPVRPGMGWTEDLPPMGGPSNFAQNTMPYPGGQGEAERFMTPRVREELLRHQLLEKRSMGMQRPLGMAGSGMGQSMEMERMMQAHRQMDPAMFPGQMAGGEGLAGTPMGMEFGGGRGLLSPPMGQSGLREVDPPMGPGNLNMNMNVNMNMNMNLNVQMTPQQQMLMSQKMRGPGDLMGPQGLSPEEMARVRAQNSSGVMGGPQKMLMPSQFPNQGQQGFSGGQGPYQAMSQDMGNTQDMFSPDQSSMPMSNVGTTRLSHMPLPPASNPPGTVHSAPNRGLGRRPSDLTISINQMGSPGMGHLKSPTLSQVHSPLVTSPSANLKSPQTPSQMVPLPSANPPGPLKSPQVLGSSLSVRSPTGSPSRLKSPSMAVPSPGWVASPKTAMPSPGVSQNKQPPLNMNSSTTLSNMEQGTLPPSGPRSSSSAPPANPPSGLMNPSLPFTSSPDPTPSQNPLSLMMTQMSKYAMPSSTPLYHNAIKTIATSDDELLPDRPLLPPPPPPQGSGPGISNSQPSQMHLNSAAAQSPMGMNLPGQQPLSHEPPPAMLPSPTPLGSNIPLHPNAQGTGGPPQNSMMMAPGGPDSLNAPCGPVPSSSQMMPFPPRLQQPHGAMAPTGGGGGGPGLQQHYPSGMALPPEDLPNQPPGPMPPQQHLMGKAMAGRMGDAYPPGVLPGVASVLNDPELSEVIRPTPTGIPEFDLSRIIPSEKPSSTLQYFPKSENQPPKAQPPNLHLMNLQNMMAEQTPSRPPNLPGQQGVQRGLNMSMCHPGQMSLLGRTGVPPQQGMVPHGLHQGVMSPPQGLMTQQNFMLMKQRGVGGEVYSQPPHMLSPQGSLMGPPPQQNLMVSHPLRQRSVSLDSQMGYLPAPGGMANLPF

Legend:
[1] = target: N-terminally FLAG/HA-tagged HPV8 E6, stably expressed in NOKs (HPV8 (human papillomavirus type 8)) (UniProt P06428); test: co-IP; FLAG immunoprecipitation (Anti-FLAG M2 Affinity Gel) from extracts of NOKs with stable expression of HPV8 E6; EBC buffer; western blot
[2] = target: N-terminally FLAG/HA-tagged HPV8 E6 (HPV8 (human papillomavirus type 8)) (UniProt P06428); test: co-IP; FLAG immunoprecipitation (Anti-FLAG M2 Affinity Gel) from extracts of transiently transfected HCT116 cells; EBC buffer (50 mM Tris HCl pH 8.0, 150 mM NaCl, 0.5% NP40, 0.5 mM EDTA); western blot
[3] = target: N-terminally FLAG/HA-tagged HPV8 E6 (HPV8 (human papillomavirus type 8)) (UniProt P06428); test: as above; remark: listed apart in the source
[4] = target: N-terminally FLAG/HA-tagged HPV8 E6, stably expressed in iHFKs (HPV8 (human papillomavirus type 8)) (UniProt P06428); test: co-IP; FLAG immunoprecipitation (Anti-FLAG M2 Affinity Gel) from extracts of iHFKs with stable expression of HPV8 E6, untreated or treated with the Wnt activator CHIR99021; EBC buffer; western blot

Molecule	binding [1]	binding [2]	binding [3]	binding [4]
Mastermind Like Transcriptional Coactivator 1 (MAML1) (from UniProt Q92585 1-1016)	binds	binds		
B1			binds	binds
